Experimental findings from US7528205B2, “Photo radical generator, photo sensitive resin composition and article” (Dai Nippon Printing Co., Ltd., priority 2003, dated 2009) are described below.

Data set [1] in a line: Evaluation 1 of curability (coating layer with trifunctional acrylate, UV exposure, no hydrogen donor). How it is done: (§1) Using a trifunctional acrylate (product name; M-305, manufactured by Toagosei Co., Ltd.) as polyfunctional monomers, the compounds 1 to 14, the comparative compounds 2 and 3 and a photoradical generator Irgacure 907 (product name; manufactured by Ciba Specialty Chemicals) were mixed with each polyfunctional monomer to prepare each THF solution of each photoradical generator.
(§2) The mixing was performed so that a ratio of the photoradical generator to the polyfunctional monomer is such that number of imide part of each of the compounds 1 to 14 and the comparative compounds 2 and 3 with respect to number of double bond of the polyfunctional monomer is 1/50 (number of imide part/number of polyfunctional monomer) or, in the case of Irgacure, number of the molecule with respect to number of double bond of the polyfunctional monomer is 1/50 (number of Irgacure 907/number of polyfunctional monomer).
(§3) Each solution was applied by spin coating to a glass substrate on which chromium was sputtered to obtain coating layers. Also, a layer without initiator component or comparative compounds and only containing trifunctional acrylate was formed as a blank.
(§4) A decrement of the peak at 810 cm^−1 was recorded with time by using an infrared spectrometer (product name: FTS6000; manufactured by BIO RAD) while exposing the above coating layer to ultraviolet rays, to confirm the degree of the disappearance of a double bond. The atmosphere around the sample during measurement was replaced with nitrogen. As the UV exposure apparatus, UV Spot Cure SP-III type (standard reflecting mirror type) manufactured by Ushio Inc. was used and as the UV lamp, USH-255BY (manufactured by Ushio Inc.) was used.

Data set [2] in a line: Evaluation 2 of curability (triethanolamine added as hydrogen donor). Here is the method: as §1, §2, §3, §4
In order to confirm whether or not the seven-membered ring imide structure-containing group was a hydrogen-drawing type radical generator, triethanolamine was added to THF solutions containing each of the compositions 1 to 14 used in the aforementioned Evaluation 1 of curability and trifunctional acrylate M305, coating layers were formed in the same manner as in the aforementioned Evaluation 1 of curability, and evaluated similarly. As comparative examples, each of the comparative compounds 1 and 3 was used.

Turning to `CSc1ccc(C(=O)C(C)(C)N2CCOCC2)cc1` [Irg907, reference compound], in data set [1], the “Coloring in coating layer” value is “Yellow” and the Odor during exposure entry is reported as “Yes”. In data set [1] (listed as Irgacure 907), the “Coloring in coating layer” value was “colored as yellow” and the Odor during exposure result is “odor was generated during exposure”.
Consider `C=CC(=O)OCCOCCOCCn1c(=O)c2ccccc2c2ccccc2c1=O` [Compound 9], for which the “Coloring in coating layer” value in data set [1] and in data set [2] was “Transparent” throughout. Further, the Odor during exposure result in data set [1] and in data set [2] was “No” in each case.
For the compound `O=c1c2ccccc2c2ccccc2c(=O)n1CCOCCn1c(=O)c2ccccc2c2ccccc2c1=O` [Compound 10], in data set [1], the “Coloring in coating layer” value is “Transparent” and the Odor during exposure result was “No”. In data set [2], the “Coloring in coating layer” value was “Transparent” and the Odor during exposure entry is “No”.
Consider `COCCn1c(=O)c2ccccc2c2ccccc2c1=O` [Compound 1], for which, in data set [1], the “Coloring in coating layer” value is “Transparent” and the Odor during exposure entry is recorded as “No”. Also, in data set [2], the “Coloring in coating layer” value is recorded as “Transparent” and the Odor during exposure entry is reported as “No”.
`CC(=O)OCCOCCOCCn1c(=O)c2ccccc2c2ccccc2c1=O` [Compound 6]: in data set [1], the “Coloring in coating layer” value is listed as “Transparent” and the Odor during exposure result is given as “No”. Moreover, in data set [2], the “Coloring in coating layer” value is listed as “Transparent” and the Odor during exposure entry is “No”.
Consider `C=CC(=O)OCCn1c(=O)c2ccccc2c2ccccc2c1=O` [Compound 7], for which, in data set [1], the “Coloring in coating layer” value is “Transparent” and the Odor during exposure entry is recorded as “No”. Further, in data set [2], the “Coloring in coating layer” value is recorded as “Transparent” and the Odor during exposure entry is reported as “No”.
Consider `COCCN1C(=O)c2cccc3cccc(c23)C1=O` [compound 3, reference compound], for which, in data set [1], the “Coloring in coating layer” value was “Transparent” and the Odor during exposure entry is listed as “No”. Moreover, in data set [2], the “Coloring in coating layer” value is listed as “Transparent” and the Odor during exposure result is on record as “No”.
With `C=COCCCn1c(=O)c2ccccc2c2ccccc2c1=O` [Compound 5], the “Coloring in coating layer” value in data set [1] and in data set [2] was “Transparent” throughout. Also, the Odor during exposure entry in data set [1] and in data set [2] was “No” throughout.
As for `CN(C)CCn1c(=O)c2ccccc2c2ccccc2c1=O` [Compound 13], the “Coloring in coating layer” value in data set [1] and in data set [2] was “Transparent” throughout. Also, the Odor during exposure result in data set [1] and in data set [2] was “No” in each case.
With `CC(=O)OCC(C(C)C)n1c(=O)c2ccccc2c2ccccc2c1=O` (centres unmarked) [Compound 4], the “Coloring in coating layer” value in data set [1] and in data set [2] was “Transparent” each time. Further, the Odor during exposure result in data set [1] and in data set [2] was “No” throughout.
As for `O=c1c2ccccc2c2ccccc2c(=O)n1CCOCCOCCOCCn1c(=O)c2ccccc2c2ccccc2c1=O` [Compound 11], in data set [1], the “Coloring in coating layer” value is on record as “Transparent” and the Odor during exposure result was “No”. In addition, in data set [2], the “Coloring in coating layer” value is on record as “Transparent” and the Odor during exposure result was “No”.
On to `C=CC(=O)OCCOCCn1c(=O)c2ccccc2c2ccccc2c1=O` [Compound 8], for which, in data set [1], the “Coloring in coating layer” value is given as “Transparent” and the Odor during exposure entry was “No”. For the same compound, in data set [2], the “Coloring in coating layer” value is listed as “Transparent” and the Odor during exposure entry was “No”.
Turning to `CC(=O)OCCN(CCn1c(=O)c2ccccc2c2ccccc2c1=O)C(C)=O` [Compound 14], in data set [1], the “Coloring in coating layer” value is listed as “Transparent” and the Odor during exposure entry was “No”. Moreover, in data set [2], the “Coloring in coating layer” value is listed as “Transparent” and the Odor during exposure entry is “No”.
`C=CC(=O)OCCN1C(=O)C2=C(CCCC2)C1=O` [compound 2, reference compound]: in data set [1], the “Coloring in coating layer” value was “Transparent” and the Odor during exposure result is reported as “No”. Moreover, in data set [2], the “Coloring in coating layer” value was “Transparent” and the Odor during exposure result is on record as “No”.
On to `CC(=O)OCCOCCn1c(=O)c2ccccc2c2ccccc2c1=O` [Compound 3], for which, in data set [1], the “Coloring in coating layer” value is on record as “Transparent” and the Odor during exposure entry was “No”. In data set [2], the “Coloring in coating layer” value is reported as “Transparent” and the Odor during exposure result was “No”.
As for `O=c1c2ccccc2c2ccccc2c(=O)n1CCOCCOCCOCCOCCOCCn1c(=O)c2ccccc2c2ccccc2c1=O` [Compound 12], in data set [1], the “Coloring in coating layer” value was “Transparent” and the Odor during exposure entry was “No”. Besides, in data set [2], the “Coloring in coating layer” value was “Transparent” and the Odor during exposure entry is reported as “No”.
Turning to `CC(=O)OCCn1c(=O)c2ccccc2c2ccccc2c1=O` [Compound 2], in data set [1], the “Coloring in coating layer” value was “Transparent” and the Odor during exposure result is on record as “No”. Further, in data set [2], the “Coloring in coating layer” value is given as “Transparent” and the Odor during exposure entry is “No”.
